# Some of the results follow. Shown are side measurements of this screen, not its main read-out; they come without a call. Compounds called inactive in the main read-out are mostly missing here. Words in brackets tell the shape of the fitted curve; partial curves, single points and poor fits give uncertain potencies.
# Experiment: qHTS Assay to Find Inhibitors of Chronic Active B-Cell Receptor Signaling
# Settings: ABC-DLBCL IkBa-CBG/CBR reporter, luminescence ratio (green luciferase fused to IkBa over red control in TMD8 lymphoma cells), 4 h
# Outline: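 Concentration-response series (up to 46 uM) were applied to TMD8 dual-reporter cells for 4 h at 37C with doxycycline. Green/red ratio, after filter-overlap correction, defined %Activity; red signal alone was normalised to basal cells and zero luminescence.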
# [1] = measured here: CBR red luminescence, cell number
# [2] = measured here: IkBa-CBG green luminescence
SMILES,AC50 [1],AC50 [2]
COc1ccc(C(=O)Nc2c(Cl)cc(Cl)cc2C(=O)NCCN2CCOCC2)cc1,"3.66 µM [rising, partial curve, poor fit]",
COCCCN=C1NN=C(c2cc(C)n(Cc3ccco3)c2C)CS1,"29.1 µM [rising, single point]","18.4 µM [falling, single point]"
CCC(=O)Nc1ccc(C(=O)n2ccc(C)n2)cc1,"7.94 µM [rising, partial curve]",
N/C(=N\OC(=O)COc1ccc(Br)cc1Cl)c1cccnc1,"1.3 µM [rising, full curve, poor fit]",
Cc1ccccc1NC(=O)c1ccc2ccccc2c1,"12.6 µM [falling, partial curve]",
CC(C)(C)NC(=O)C(c1ccncc1)N(Cc1cccs1)C(=O)Cn1nnc(-c2ccc(F)cc2)n1 (stereo not drawn),,"18.4 µM [rising, single point]"
CCc1ccc(NC(=O)c2ccc3nc(N)sc3c2)cc1,"10.3 µM [falling, partial curve]",
N#Cc1cccc(NC(=O)CCC2CCCC2)c1,"0.731 µM [rising, partial curve, poor fit]",
C#CCOCCOCCOCCNc1nc(N2CCN(C(=O)CCCCCCCCCCNC(=O)[C@H](CCCCN)n3cc(C)nn3)CC2)nc(N2CCN(C(=O)CCCCCCCCCCNC(=O)[C@@H]([C@H](C)O)n3cc(C)nn3)CC2)n1,"29.1 µM [rising, single point]",
O=C(CSc1nc2ccccc2c(=O)[nH]1)N1CCCCC1,"2.59 µM [falling, full curve, poor fit]",
Cc1ccc(NC(=S)NC(=O)/C=C/c2ccco2)c(O)c1,"35.5 µM [falling, single point]",
CCOC(=O)c1sc(=S)n(Cc2ccccc2)c1C,"8.91 µM [rising, partial curve, poor fit]",
CCCCn1c(=N)n(CCOc2ccc(C)cc2)c2ccccc21,"18.4 µM [falling, single point]",
Cc1c(C(=O)N/N=C/c2ccc(N(C)C)cc2)[nH]c2ccc(Cl)cc12,"5.8 µM [rising, full curve]","6.51 µM [falling, partial curve, poor fit]"
O=c1cc(N2CCCCC2)c(-c2ccccc2)nn1Cc1c(Cl)cccc1Cl,"3.55 µM [rising, single point]",
Cc1cnc(C(=O)Nc2nnc(C(C)C)s2)cn1,"0.291 µM [rising, full curve, poor fit]",
CCOc1ccccc1NC(=O)CN(C)S(=O)(=O)c1cnc[nH]1,"35.5 µM [rising, single point]",
COc1ccc(/C=C/C(=O)Nc2cc(C)nn2-c2nc3ccccc3[nH]2)cc1,"2.91 µM [falling, full curve]",
O=C1CCc2cc(S(=O)(=O)NCc3ccc(F)cc3)cc3c2N1CCC3,"16.4 µM [falling, single point]",
Cc1c(C(=O)N/N=C/c2cccs2)nc2ccccn12,"18.4 µM [falling, single point]",
CC(C)c1ccc(C(=O)Nc2nnc(S(=O)(=O)N3CCOCC3)s2)cc1,"10 µM [rising, partial curve, poor fit]",

# Structures shown so far containing a furan ring, fused or not (2):
SMILES,AC50 [1],AC50 [2]
COCCCN=C1NN=C(c2cc(C)n(Cc3ccco3)c2C)CS1,"29.1 µM [rising, single point]","18.4 µM [falling, single point]"
Cc1ccc(NC(=S)NC(=O)/C=C/c2ccco2)c(O)c1,"35.5 µM [falling, single point]",

# The listing continues.

SMILES,AC50 [1],AC50 [2]
c1ccc2c(c1)nc(NCC1CCCO1)c1nnnn12 (stereo not drawn),"1.3 µM [falling, full curve, poor fit]",
O=c1[nH]c2ccccc2c2cn(-c3ccccc3)nc12,"1.26 µM [falling, full curve, poor fit]",
COC(=O)c1ccc(C)c(NC(=O)CCc2ccc(OC)c(OC)c2)c1,"11.6 µM [rising, partial curve, poor fit]",
Cc1cc(N)n2nc(C(F)(F)F)nc2n1,"14.1 µM [falling, partial curve, poor fit]",
Cc1cccc(C(=O)N2CCN(C(=O)c3cccc(C)c3)C(C)C2)c1 (stereo not drawn),"3.26 µM [falling, single point]",
CC1CCCCN1c1ncnc2ccccc12 (stereo not drawn),"29.1 µM [rising, partial curve, poor fit]",
C=CCNc1oc(-c2cccs2)nc1S(=O)(=O)c1ccccc1,"3.55 µM [falling, partial curve, poor fit]",
Cc1ccc(N(C(=O)c2ccc3c(c2)OCO3)C2C=CS(=O)(=O)C2)cc1C (stereo not drawn),"20 µM [falling, single point]",
O=C(CCCOc1ccc(Cl)cc1)Nc1ccc(N2CCOCC2)cc1,"35.5 µM [falling, single point]",
CN(CCCNC(=O)Cn1cc2c(n1)CCCC2)C1CCCCC1,"7.31 µM [rising, partial curve]",
CCC(C)N(C(=O)COC(=O)c1cc([N+](=O)[O-])ccc1N1CCOCC1)C1CCS(=O)(=O)C1 (stereo not drawn),,"18.4 µM [falling, partial curve, poor fit]"
COc1ccc(NC(=O)c2cc([N+](=O)[O-])ccc2N2CCCCC2)cc1,"1.12 µM [falling, full curve, poor fit]",
O=Cc1ccc(OCC(=O)N2CCc3ccccc32)c(Br)c1,"5.17 µM [falling, partial curve]",
Cc1nnsc1C(=O)Nc1ccc(Cl)cc1Cl,"11.2 µM [rising, partial curve]",
COc1ccccc1CNC(=O)CSc1nc(=O)[nH]c2c1CCC2,"11.2 µM [falling, partial curve, poor fit]",
N#C/C(=C\c1ccc(O)c([N+](=O)[O-])c1)c1nc2ccccc2s1,"1 µM [rising, full curve, poor fit]",
COc1ccccc1CNC(=O)CSc1ccccc1,"0.631 µM [rising, full curve, poor fit]",
COc1ccc(Cl)cc1NC(=O)c1noc(C)c1[N+](=O)[O-],"1.58 µM [falling, full curve]",
Cn1cnc2cc(NC(=O)c3cccs3)ccc21,"8.91 µM [falling, partial curve, poor fit]",
CCC1(C)Nc2ccccc2C(=O)N1O (stereo not drawn),"7.08 µM [falling, partial curve]",
